Laboratory results as given in patent US11104663B2 (priority 2017, dated 2021).

## O=C(O)c1cn(C2CC2)c2cc(N3CCNCC3)c(F)cc2c1=O [Ex. 2 ciprofloxacin, 1-cyclopropyl-6-fluoro-4-oxo-7-(piperazin-1-yl)-1,4-dihydroquinoline-3-carboxylic acid]
  rate of dissolution in water compared with Form B and raw ciprofloxacin hydrochloride: significantly slower rate of dissolution
